Among the targets are ASXL2 (human) (UniProt Q76L83); ASXL1 (human) (UniProt Q8IXJ9); BAP1 (human) (UniProt Q92560).
What all share (assay): affinity purification with mass spectrometry
The next test addresses T1, RING1 (human), Q06587.
T1 chain: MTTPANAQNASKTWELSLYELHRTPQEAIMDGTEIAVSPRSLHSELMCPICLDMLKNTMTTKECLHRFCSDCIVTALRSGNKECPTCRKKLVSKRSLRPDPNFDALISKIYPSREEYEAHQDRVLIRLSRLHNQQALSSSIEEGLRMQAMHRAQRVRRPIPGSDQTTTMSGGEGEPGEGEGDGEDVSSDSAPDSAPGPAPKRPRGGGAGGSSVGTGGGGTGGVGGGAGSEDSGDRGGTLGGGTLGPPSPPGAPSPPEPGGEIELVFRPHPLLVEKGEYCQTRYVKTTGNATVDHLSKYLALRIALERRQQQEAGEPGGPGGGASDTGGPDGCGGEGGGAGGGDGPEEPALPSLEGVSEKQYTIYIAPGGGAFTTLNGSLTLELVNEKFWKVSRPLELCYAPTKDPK
Particulars: remark: other sources report otherwise.

Protein sequences, listed by entry. Tags and fused reporters are not part of them.
UniProt Q76L83: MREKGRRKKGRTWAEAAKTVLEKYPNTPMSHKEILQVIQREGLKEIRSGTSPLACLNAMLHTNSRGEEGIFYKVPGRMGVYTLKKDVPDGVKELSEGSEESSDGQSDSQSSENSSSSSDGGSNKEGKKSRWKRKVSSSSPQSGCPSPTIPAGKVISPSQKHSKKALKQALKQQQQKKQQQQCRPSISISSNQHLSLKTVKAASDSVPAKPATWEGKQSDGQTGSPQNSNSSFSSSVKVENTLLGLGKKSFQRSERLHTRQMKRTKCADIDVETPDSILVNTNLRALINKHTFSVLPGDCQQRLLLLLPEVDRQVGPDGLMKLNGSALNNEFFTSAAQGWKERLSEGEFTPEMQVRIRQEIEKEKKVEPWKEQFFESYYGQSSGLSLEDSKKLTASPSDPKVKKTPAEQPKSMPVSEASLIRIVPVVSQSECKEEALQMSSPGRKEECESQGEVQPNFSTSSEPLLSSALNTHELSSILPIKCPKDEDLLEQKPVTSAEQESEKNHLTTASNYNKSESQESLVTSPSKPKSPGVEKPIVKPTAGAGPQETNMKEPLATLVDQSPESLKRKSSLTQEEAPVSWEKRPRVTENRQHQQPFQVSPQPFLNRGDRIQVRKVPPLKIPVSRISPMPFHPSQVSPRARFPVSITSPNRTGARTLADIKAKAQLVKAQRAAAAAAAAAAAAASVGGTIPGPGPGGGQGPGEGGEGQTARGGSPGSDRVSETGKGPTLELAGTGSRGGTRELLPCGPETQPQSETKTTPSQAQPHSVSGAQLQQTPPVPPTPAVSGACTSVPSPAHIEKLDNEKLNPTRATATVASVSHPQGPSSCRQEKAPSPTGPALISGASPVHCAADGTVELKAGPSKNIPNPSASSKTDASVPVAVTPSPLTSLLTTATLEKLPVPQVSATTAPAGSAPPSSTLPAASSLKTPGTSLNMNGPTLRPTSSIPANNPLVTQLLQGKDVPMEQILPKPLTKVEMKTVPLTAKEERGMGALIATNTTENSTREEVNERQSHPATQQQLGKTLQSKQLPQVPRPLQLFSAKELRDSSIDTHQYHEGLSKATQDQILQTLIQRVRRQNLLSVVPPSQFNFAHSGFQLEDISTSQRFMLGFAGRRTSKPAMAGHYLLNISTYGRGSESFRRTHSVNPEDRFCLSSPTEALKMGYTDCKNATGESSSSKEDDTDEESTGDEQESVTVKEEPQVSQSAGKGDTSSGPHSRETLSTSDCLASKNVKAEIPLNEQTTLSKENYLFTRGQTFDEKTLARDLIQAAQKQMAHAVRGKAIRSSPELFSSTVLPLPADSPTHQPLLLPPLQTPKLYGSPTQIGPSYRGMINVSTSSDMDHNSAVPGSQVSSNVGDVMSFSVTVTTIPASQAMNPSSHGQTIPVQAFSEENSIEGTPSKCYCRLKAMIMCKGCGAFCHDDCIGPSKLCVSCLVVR
UniProt Q8IXJ9: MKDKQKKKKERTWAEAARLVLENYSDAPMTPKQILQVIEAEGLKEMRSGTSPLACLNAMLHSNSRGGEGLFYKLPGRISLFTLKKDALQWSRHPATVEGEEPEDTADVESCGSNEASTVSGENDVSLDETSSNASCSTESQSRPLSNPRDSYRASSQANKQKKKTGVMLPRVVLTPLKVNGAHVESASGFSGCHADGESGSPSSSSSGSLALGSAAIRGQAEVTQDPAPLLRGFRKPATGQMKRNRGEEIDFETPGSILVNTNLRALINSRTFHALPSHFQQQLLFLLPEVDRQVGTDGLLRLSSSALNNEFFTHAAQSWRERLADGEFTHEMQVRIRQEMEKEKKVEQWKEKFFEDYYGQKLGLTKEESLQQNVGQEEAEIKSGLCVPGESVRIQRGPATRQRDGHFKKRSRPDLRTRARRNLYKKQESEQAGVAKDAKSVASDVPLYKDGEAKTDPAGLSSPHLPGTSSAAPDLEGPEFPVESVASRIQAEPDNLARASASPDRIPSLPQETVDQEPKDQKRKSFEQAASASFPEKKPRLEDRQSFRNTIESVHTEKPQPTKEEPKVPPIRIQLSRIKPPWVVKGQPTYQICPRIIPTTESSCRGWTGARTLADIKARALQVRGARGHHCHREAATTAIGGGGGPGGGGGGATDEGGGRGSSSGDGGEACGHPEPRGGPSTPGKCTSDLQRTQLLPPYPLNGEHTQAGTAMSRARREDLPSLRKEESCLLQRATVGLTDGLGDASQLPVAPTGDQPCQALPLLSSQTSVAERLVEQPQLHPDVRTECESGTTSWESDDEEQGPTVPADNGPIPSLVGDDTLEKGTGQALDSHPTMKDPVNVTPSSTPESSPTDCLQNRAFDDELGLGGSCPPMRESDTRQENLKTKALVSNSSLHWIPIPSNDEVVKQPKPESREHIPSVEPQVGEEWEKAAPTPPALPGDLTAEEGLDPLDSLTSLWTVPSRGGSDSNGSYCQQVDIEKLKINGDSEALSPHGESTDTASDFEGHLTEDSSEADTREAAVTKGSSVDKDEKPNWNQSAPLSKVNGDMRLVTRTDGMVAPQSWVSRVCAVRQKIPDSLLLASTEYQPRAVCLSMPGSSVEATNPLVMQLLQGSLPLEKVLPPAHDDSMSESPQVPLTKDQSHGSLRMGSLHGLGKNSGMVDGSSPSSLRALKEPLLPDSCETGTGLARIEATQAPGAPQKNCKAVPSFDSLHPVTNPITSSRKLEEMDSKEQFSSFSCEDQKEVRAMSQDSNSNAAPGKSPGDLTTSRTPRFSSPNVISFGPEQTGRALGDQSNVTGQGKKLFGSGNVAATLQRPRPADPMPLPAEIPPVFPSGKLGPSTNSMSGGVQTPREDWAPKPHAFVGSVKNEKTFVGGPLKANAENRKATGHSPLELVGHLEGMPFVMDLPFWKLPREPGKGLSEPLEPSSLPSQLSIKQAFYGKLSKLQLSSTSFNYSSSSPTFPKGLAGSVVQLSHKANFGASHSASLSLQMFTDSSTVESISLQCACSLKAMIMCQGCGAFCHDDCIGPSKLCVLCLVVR
UniProt Q92560: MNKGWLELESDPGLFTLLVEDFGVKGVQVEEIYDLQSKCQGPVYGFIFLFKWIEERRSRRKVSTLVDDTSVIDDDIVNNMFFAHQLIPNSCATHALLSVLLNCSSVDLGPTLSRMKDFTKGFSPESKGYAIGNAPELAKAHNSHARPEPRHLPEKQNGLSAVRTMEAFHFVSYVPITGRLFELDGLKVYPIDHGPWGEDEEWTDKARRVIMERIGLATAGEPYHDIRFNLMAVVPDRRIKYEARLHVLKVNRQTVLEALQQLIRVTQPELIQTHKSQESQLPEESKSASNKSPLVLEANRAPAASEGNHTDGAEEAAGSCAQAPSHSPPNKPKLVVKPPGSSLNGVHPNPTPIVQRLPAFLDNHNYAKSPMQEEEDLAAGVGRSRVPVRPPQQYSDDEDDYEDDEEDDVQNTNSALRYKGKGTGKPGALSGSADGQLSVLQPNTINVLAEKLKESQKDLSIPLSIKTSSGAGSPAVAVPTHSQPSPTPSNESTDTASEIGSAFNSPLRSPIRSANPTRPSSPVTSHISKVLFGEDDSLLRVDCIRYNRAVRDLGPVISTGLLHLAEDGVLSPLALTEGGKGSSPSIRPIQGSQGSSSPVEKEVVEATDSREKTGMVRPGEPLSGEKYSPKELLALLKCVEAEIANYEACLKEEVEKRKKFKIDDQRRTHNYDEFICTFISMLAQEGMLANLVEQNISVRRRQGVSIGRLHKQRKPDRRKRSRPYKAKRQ

In the next test the target is T2, OGT1 (human) (UniProt O15294).
T2 sequence: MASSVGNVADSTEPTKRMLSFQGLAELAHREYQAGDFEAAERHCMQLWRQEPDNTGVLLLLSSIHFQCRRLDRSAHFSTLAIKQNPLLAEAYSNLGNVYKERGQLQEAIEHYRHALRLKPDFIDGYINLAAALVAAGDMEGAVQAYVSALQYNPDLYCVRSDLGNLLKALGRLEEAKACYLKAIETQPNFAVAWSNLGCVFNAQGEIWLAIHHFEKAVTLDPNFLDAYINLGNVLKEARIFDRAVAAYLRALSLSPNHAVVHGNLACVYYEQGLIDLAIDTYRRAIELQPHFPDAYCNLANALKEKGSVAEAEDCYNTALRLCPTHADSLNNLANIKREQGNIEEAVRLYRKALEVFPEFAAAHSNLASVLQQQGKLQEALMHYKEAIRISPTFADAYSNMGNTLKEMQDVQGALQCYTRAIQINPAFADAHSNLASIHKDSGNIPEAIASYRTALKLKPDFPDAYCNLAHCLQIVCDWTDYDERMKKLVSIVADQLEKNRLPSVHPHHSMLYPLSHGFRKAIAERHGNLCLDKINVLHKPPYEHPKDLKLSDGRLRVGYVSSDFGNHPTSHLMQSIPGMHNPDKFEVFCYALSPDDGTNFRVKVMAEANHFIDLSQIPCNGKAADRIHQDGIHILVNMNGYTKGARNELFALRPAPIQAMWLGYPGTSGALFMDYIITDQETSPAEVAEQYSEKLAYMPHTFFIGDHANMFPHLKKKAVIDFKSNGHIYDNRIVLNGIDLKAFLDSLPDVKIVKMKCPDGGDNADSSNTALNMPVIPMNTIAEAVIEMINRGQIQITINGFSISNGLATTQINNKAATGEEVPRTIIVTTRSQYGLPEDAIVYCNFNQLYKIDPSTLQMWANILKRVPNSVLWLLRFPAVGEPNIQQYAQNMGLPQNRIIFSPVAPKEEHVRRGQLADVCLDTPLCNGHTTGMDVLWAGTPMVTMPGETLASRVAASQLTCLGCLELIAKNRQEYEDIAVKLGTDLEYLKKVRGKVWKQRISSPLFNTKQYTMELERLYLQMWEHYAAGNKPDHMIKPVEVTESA

These are yes or no findings as the source states them, for the method shown. In cells and extracts the contact can be indirect. A yes stands for co-enrichment or nearness to the bait. Other partners may have been found. For some assays here: No binding means not detected with the bait.

B1: PCGF6, Q9BYE7 1-350 (protein)
chain: MEGVAVVTAGSVGAAKTEGAAALPPPPPVSPPALTPAPAAGEEGPAPLSETGAPGCSGSRPPELEPERSLGRFRGRFEDEDEELEEEEELEEEEEEEEEDMSHFSLRLEGGRQDSEDEEERLINLSELTPYILCSICKGYLIDATTITECLHTFCKSCIVRHFYYSNRCPKCNIVVHQTQPLYNIRLDRQLQDIVYKLVINLEEREKKQMHDFYKERGLEVPKPAVPQPVPSSKGRSKKVLESVFRIPPELDMSLLLEFIGANEGTGHFKPLEKKFVRVSGEATIGHVEKFLRRKMGLDPACQVDIICGDHLLEQYQTLREIRRAIGDAAMQDGLLVLHYGLVVSPLKIT
Turning to B1, in the test with RING1 (human), Q06587, the binding entry was “binds”.

B2: OGT1 (enzyme, UniProt O15294 1-1046)
chain: MASSVGNVADSTEPTKRMLSFQGLAELAHREYQAGDFEAAERHCMQLWRQEPDNTGVLLLLSSIHFQCRRLDRSAHFSTLAIKQNPLLAEAYSNLGNVYKERGQLQEAIEHYRHALRLKPDFIDGYINLAAALVAAGDMEGAVQAYVSALQYNPDLYCVRSDLGNLLKALGRLEEAKACYLKAIETQPNFAVAWSNLGCVFNAQGEIWLAIHHFEKAVTLDPNFLDAYINLGNVLKEARIFDRAVAAYLRALSLSPNHAVVHGNLACVYYEQGLIDLAIDTYRRAIELQPHFPDAYCNLANALKEKGSVAEAEDCYNTALRLCPTHADSLNNLANIKREQGNIEEAVRLYRKALEVFPEFAAAHSNLASVLQQQGKLQEALMHYKEAIRISPTFADAYSNMGNTLKEMQDVQGALQCYTRAIQINPAFADAHSNLASIHKDSGNIPEAIASYRTALKLKPDFPDAYCNLAHCLQIVCDWTDYDERMKKLVSIVADQLEKNRLPSVHPHHSMLYPLSHGFRKAIAERHGNLCLDKINVLHKPPYEHPKDLKLSDGRLRVGYVSSDFGNHPTSHLMQSIPGMHNPDKFEVFCYALSPDDGTNFRVKVMAEANHFIDLSQIPCNGKAADRIHQDGIHILVNMNGYTKGARNELFALRPAPIQAMWLGYPGTSGALFMDYIITDQETSPAEVAEQYSEKLAYMPHTFFIGDHANMFPHLKKKAVIDFKSNGHIYDNRIVLNGIDLKAFLDSLPDVKIVKMKCPDGGDNADSSNTALNMPVIPMNTIAEAVIEMINRGQIQITINGFSISNGLATTQINNKAATGEEVPRTIIVTTRSQYGLPEDAIVYCNFNQLYKIDPSTLQMWANILKRVPNSVLWLLRFPAVGEPNIQQYAQNMGLPQNRIIFSPVAPKEEHVRRGQLADVCLDTPLCNGHTTGMDVLWAGTPMVTMPGETLASRVAASQLTCLGCLELIAKNRQEYEDIAVKLGTDLEYLKKVRGKVWKQRISSPLFNTKQYTMELERLYLQMWEHYAAGNKPDHMIKPVEVTESA
As for B2, the binding result with ASXL2 (human) and with ASXL1 (human) was “binds” each time.

B3: MBD5 (protein, UniProt Q9P267 1-1494)
chain: MNGGKECDGGDKEGGLPAIQVPVGWQRRVDQNGVLYVSPSGSLLSCLEQVKTYLLTDGTCKCGLECPLILPKVFNFDPGAAVKQRTAEDVKADEDVTKLCIHKRKIIAVATLHKSMEAPHPSLVLTSPGGGTNATPVVPSRAATPRSVRNKSHEGITNSVMPECKNPFKLMIGSSNAMGRLYVQELPGSQQQELHPVYPRQRLGSSEHGQKSPFRGSHGGLPSPASSGSQIYGDGSISPRTDPLGSPDVFTRSNPGFHGAPNSSPIHLNRTPLSPPSVMLHGSPVQSSCAMAGRTNIPLSPTLTTKSPVMKKPMCNFSTNMEIPRAMFHHKPPQGPPPPPPPSCALQKKPLTSEKDPLGILDPIPSKPVNQNPVIINPTSFHSNVHSQVPMMNVSMPPAVVPLPSNLPLPTVKPGHMNHGSHVQRVQHSASTSLSPSPVTSPVHMMGTGIGRIEASPQRSRSSSTSSDHGNFMMPPVGPQATSSGIKVPPRSPRSTIGSPRPSMPSSPSTKSDGHHQYKDIPNPLIAGISNVLNTPSSAAFPTASAGSSSVKSQPGLLGMPLNQILNQHNAASFPASSLLSAAAKAQLANQNKLAGNNSSSSSNSGAVAGSGNTEGHSTLNTMFPPTANMLLPTGEGQSGRAALRDKLMSQQKDALRKRKQPPTTVLSLLRQSQMDSSAVPKPGPDLLRKQGQGSFPISSMSQLLQSMSCQSSHLSSNSTPGCGASNTALPCSANQLHFTDPSMNSSVLQNIPLRGEAVHCHNANTNFVHSNSPVPNHHLAGLINQIQASGNCGMLSQSGMALGNSLHPNPPQSRISTSSTPVIPNSIVSSYNQTSSEAGGSGPSSSIAIAGTNHPAITKTTSVLQDGVIVTTAAGNPLQSQLPIGSDFPFVGQEHALHFPSNSTSNNHLPHPLNPSLLSSLPISLPVNQQHLLNQNLLNILQPSAGEGDMSSINNTLSNHQLTHLQSLLNNNQMFPPNQQQQQLLQGYQNLQAFQGQSTIPCPANNNPMACLFQNFQVRMQEDAALLNKRISTQPGLTALPENPNTTLPPFQDTPCELQPRIDPSLGQQVKDGLVVGGPGDASVDAIYKAVVDAASKGMQVVITTAVNSTTQISPIPALSAMSAFTASIGDPLNLSSAVSAVIHGRNMGGVDHDGRLRNSRGARLPKNLDHGKNVNEGDGFEYFKSASCHTSKKQWDGEQSPRGERNRWKYEEFLDHPGHIHSSPCHERPNNVSTLPFLPGEQHPILLPPRNCPGDKILEENFRYNNYKRTMMSFKERLENTVERCAHINGNRPRQSRGFGELLSTAKQDLVLEEQSPSSSNSLENSLVKDYIHYNGDFNAKSVNGCVPSPSDAKSISSEDDLRNPDSPSSNELIHYRPRTFNVGDLVWGQIKGLTSWPGKLVREDDVHNSCQQSPEEGKVEPEKLKTLTEGLEAYSRVRKRNRKSGKLNNHLEAAIHEAMSELDKMSGTVHQIPQGDRQMRPPKPKRRKISR
For the molecule B3, the binding entry with BAP1 (human) is “binds”; with OGT1 (human), “no binding”.

(Values after publication doi:10.1101/059964.)
